Among the data in PMC10701957 are binding values, retold here.

Amino acid sequences for entries named in this document (tags omitted). A change or cut given only in a name is not applied to a line headed by its entry.
UniProt P49841: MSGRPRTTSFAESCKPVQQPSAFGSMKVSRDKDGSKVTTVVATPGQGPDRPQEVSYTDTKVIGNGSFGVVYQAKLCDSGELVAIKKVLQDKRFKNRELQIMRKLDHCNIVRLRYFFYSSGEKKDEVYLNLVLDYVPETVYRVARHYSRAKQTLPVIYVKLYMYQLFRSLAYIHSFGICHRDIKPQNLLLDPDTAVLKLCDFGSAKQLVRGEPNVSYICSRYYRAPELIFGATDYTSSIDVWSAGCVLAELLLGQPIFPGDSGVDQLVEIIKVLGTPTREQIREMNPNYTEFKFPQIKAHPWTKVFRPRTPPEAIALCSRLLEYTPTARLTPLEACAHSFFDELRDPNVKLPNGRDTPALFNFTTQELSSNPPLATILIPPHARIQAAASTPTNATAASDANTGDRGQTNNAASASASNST
UniProt P35579: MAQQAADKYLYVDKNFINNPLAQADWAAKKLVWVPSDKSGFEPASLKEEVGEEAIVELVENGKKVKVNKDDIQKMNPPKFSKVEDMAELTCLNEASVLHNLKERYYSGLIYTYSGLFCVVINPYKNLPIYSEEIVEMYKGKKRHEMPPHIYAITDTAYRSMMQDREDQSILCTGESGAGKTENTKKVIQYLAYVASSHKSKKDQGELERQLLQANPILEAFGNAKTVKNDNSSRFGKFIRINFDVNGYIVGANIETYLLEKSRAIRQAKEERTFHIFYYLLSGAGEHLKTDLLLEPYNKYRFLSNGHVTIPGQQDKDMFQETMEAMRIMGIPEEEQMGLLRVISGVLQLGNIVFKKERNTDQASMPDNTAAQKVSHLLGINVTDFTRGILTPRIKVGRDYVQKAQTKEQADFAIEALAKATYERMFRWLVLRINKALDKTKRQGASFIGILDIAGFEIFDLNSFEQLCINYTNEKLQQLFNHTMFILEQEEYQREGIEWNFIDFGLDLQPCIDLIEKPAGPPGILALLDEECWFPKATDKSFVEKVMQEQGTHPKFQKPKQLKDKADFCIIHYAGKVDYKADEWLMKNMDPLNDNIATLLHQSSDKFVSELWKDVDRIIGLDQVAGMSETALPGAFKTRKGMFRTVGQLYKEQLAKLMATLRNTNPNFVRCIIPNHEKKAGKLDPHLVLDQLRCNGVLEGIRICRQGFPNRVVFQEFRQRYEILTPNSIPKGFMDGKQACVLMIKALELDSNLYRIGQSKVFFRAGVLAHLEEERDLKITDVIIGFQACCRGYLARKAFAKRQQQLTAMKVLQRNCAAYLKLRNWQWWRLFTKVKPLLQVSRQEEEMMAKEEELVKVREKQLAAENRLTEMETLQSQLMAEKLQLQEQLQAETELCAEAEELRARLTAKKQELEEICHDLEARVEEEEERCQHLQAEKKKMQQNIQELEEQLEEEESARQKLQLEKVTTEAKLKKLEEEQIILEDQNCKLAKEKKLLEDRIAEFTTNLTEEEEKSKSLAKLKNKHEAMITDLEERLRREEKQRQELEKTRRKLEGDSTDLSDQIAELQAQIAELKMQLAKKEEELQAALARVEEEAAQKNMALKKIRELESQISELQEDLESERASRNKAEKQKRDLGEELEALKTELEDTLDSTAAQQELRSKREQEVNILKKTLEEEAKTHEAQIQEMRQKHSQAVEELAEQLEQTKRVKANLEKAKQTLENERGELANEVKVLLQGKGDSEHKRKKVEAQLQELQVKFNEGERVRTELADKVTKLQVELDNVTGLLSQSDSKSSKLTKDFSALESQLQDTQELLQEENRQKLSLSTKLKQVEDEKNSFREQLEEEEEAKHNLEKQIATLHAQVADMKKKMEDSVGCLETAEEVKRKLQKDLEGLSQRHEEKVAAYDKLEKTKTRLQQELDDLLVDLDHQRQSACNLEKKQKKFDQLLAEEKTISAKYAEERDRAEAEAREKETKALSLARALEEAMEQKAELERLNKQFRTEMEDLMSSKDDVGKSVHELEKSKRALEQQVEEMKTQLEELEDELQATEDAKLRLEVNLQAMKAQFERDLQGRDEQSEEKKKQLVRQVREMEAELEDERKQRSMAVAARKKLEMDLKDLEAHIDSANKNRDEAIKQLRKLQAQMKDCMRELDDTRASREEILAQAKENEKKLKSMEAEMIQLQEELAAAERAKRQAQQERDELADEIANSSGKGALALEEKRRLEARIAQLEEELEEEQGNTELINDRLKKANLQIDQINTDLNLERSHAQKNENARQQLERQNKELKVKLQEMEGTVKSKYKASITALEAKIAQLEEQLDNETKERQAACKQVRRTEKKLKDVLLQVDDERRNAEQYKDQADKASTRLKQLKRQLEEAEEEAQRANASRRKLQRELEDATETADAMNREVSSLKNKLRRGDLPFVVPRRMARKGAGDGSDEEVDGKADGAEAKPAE
UniProt P05556: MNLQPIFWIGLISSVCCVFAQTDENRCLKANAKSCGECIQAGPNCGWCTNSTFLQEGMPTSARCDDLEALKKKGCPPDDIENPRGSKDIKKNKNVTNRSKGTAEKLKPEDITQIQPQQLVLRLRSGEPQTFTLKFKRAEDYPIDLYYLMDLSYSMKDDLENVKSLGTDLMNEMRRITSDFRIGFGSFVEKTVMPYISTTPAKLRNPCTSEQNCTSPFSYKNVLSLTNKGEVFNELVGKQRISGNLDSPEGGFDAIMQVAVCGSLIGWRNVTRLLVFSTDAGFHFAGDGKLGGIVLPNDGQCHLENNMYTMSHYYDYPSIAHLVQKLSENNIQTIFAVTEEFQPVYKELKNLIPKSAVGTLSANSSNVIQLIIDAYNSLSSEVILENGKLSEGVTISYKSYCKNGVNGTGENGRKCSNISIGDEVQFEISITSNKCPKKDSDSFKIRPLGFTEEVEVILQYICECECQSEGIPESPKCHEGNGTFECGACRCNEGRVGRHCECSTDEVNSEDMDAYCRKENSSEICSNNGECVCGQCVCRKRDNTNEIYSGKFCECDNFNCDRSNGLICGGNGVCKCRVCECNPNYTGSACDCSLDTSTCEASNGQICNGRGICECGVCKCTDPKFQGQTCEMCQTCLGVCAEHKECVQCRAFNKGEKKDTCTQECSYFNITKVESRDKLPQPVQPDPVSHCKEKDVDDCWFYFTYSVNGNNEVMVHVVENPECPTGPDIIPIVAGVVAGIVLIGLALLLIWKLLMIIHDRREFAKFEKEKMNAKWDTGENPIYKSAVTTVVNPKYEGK

These are yes or no findings as the source states them, for the method shown. In cells and extracts the contact can be indirect. Some binding calls cover weakened binding; strength is not graded here.

Test [1] has as its target GSK-3β (human (endogenous in HNSCC cell lines)) (UniProt P49841). Nature of the test: co-IP; MYH9 with GSK-3β in HNSCC cells with ACTN1 overexpression or ACTN1 depletion; RIPA lysate, magnetic beads, western blot.
The target of test [2] is alpha-actinin 1 (ACTN1) (human (endogenous in SCC-1cisR)) (UniProt P12814). Briefly: co-IP; endogenous co-IP in HNSCC cells; RIPA lysate, primary antibody overnight at 4 °C, magnetic beads, western blot.
Test [3] shares this target. Nature of the test: co-IP; SCC-1cisR cells (a further panel in Supplementary Fig. 7B); RIPA lysate, primary antibody overnight at 4 °C, magnetic beads 6 h at 4 °C, western blot.
In test [4] the target is calponin-homology 1 domain of ACTN1 (human) (UniProt P12814). Briefly: co-IP; domain constructs: MYH9 domains with ACTN1 in SCC-1cisR cells, ACTN1 domains with MYH9 in SCC-1 cells; RIPA lysate, magnetic beads, western blot.
In another test the target is exogenous ACTN1 (human) (UniProt P12814). Briefly: co-IP; exogenous co-IP in HNSCC cells; RIPA lysate, primary antibody overnight at 4 °C, magnetic beads, western blot.

Consider “myosin heavy chain 9 (MYH9) (from UniProt P35579 1-1960)”, for which the binding result in test [1] and in test [2] was “binds” in each case.

As for “integrin β1 (from UniProt P05556 21-798) (receptor)”, in test [3], the binding result is “binds”.

As for “exogenous MYH9 (from UniProt P35579 1-1960)”, the binding result (in test [4]; with exogenous ACTN1 (human)) was “binds” throughout.
